Measured data: PubChem BioAssay AID720505 (Drosophila RNAi Screening Center, 2013)
Test: 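Genes needed for store-operated calcium entry in fly cells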 (primary screen). System: Drosophila S2R+ cells. Reagent: long dsRNA against Drosophila genes. Conditions: thapsigargin (2 µM) in calcium-free buffer to empty internal stores, then 2 mM calcium added back. Detection: 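Stores emptied by 2 µM thapsigargin without calcium, then 2 mM calcium re-added; fluo-4 fluorescence followed by FLIPR in 384-well plates, per-well averaged endpoint, raw; two screen passes, some wells retested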. Direction: calcium signal and retest calcium signal: higher = more calcium entry after store depletion. Rule for the call: 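About 1500 genes called as lowering calcium entry, by varying amounts, judged against per-plate control wells with STIM1 as positive and Rho1 as negative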. Meaning of the calls: active = called as lowering calcium entry; inactive = not called.
In all, the deposit lists about 20,000 reagents; this is a random part of those with a known target gene and a result. Over the whole deposit, about 2,100 (10%) got an active call. 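Raw plate signals without normalisation; calls rest on control-based scores that were not deposited; replicate 2 separates called from uncalled poorly.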 The numbers tell different reagents against one gene apart. A plus sign joins genes that one reagent is predicted to hit. No sequences are given here. Not stated in the record: the amount of reagent, the time to read-out.

| predicted target | reagent | calcium signal, replicate 1 | calcium signal, replicate 2 | retest calcium signal, replicate 1 | retest calcium signal, replicate 2 | call |
| --- | --- | --- | --- | --- | --- | --- |
| spn-E | 1 | 115 | 149 | – | – | inactive |
| AstC | 1 | 165 | 183 | – | – | inactive |
| CG30197 | 1 | 86.8 | 87.2 | – | – | active |
| ItgaPS5 | 1 | 125 | 213 | – | – | inactive |
| CG13005 | 1 | 97.5 | 118 | – | – | inactive |
| arr | 1 | 147 | 142 | – | – | inactive |
| mof | 1 | 178 | 96.5 | – | – | inactive |
| CG5326 | 1 | 226 | 251 | – | – | inactive |
| Su(z)3 (retired record) | 1 | 80.4 | 121 | – | – | inactive |
| Su(z)3 (retired record) | 2 | 86.5 | 82.8 | – | – | inactive |
| sinu | 1 | 127 | 164 | – | – | inactive |
| CG32111 (retired record) | 1 | – | – | – | – | active |
| CG13887 | 1 | 102 | 105 | – | – | inactive |
| dop | 1 | 118 | 58.2 | – | – | inactive |
| Hr78 | 1 | 102 | 81.4 | – | – | inactive |
| Tcs3 | 1 | 87.1 | 111 | – | – | inactive |
| fid | 1 | 261 | 196 | – | – | inactive |
| fid | 2 | 175 | 124 | – | – | inactive |
| Pcd | 1 | 203 | 197 | – | – | inactive |
| Arr1 | 1 | 142 | 94.5 | – | – | inactive |
| Pif1A + Pif1B | 1 | 105 | 155 | – | – | inactive |
| Pif1A + Pif1B | 2 | 101 | 115 | – | – | inactive |
| Pif1A + Pif1B | 3 | 115 | 189 | – | – | inactive |
| CG11095 | 1 | 87.6 | 80.4 | – | – | inactive |
| CG10663 | 1 | 137 | 134 | – | – | inactive |
| CG11227 | 1 | 219 | 93.2 | – | – | inactive |
| SPE | 1 | 172 | 205 | – | – | inactive |
| CG9135 | 1 | 98.8 | 198 | – | – | inactive |
| mre11 | 1 | 89 | 118 | 83 | 95.7 | inactive |
| mre11 | 2 | 119 | 222 | – | – | inactive |
| dare | 1 | 124 | 155 | – | – | inactive |
| CG7557 | 1 | 209 | 102 | – | – | inactive |
| Gdh | 1 | 111 | 180 | – | – | inactive |
| l(2)41Ab | 1 | 109 | 9425 | – | – | inactive |
| CG34049 | 1 | 80.5 | 79.1 | – | – | active |
| CG1236 | 1 | 115 | 89.2 | – | – | inactive |
| CG32299 + CG32298 | 1 | – | – | – | – | active |
| CG32299 + CG32298 | 2 | 103 | 236 | – | – | inactive |
| sesB | 1 | 129 | 85.4 | – | – | inactive |
| CG4872 | 1 | 94.4 | 109 | – | – | inactive |
| CG42792 | 1 | 159 | 131 | – | – | inactive |
| ast | 1 | 142 | 204 | – | – | inactive |
| aos | 1 | 93.1 | 178 | – | – | inactive |
| CG3437 | 1 | 113 | 122 | – | – | inactive |
| GV1 | 1 | 107 | 130 | – | – | inactive |
| Rab32 | 1 | 64.6 | 89.3 | – | – | inactive |
| Rab32 | 2 | 114 | 113 | – | – | inactive |
| Cbl | 1 | 97.5 | 92 | – | – | inactive |
| Cbl | 2 | 73.1 | 74.2 | – | – | inactive |
| CG17570 | 1 | 103 | 4218 | – | – | inactive |
| CG17570 | 2 | 154 | 94 | – | – | inactive |
| vtd | 1 | 182 | 83.9 | – | – | inactive |
| Epac | 1 | 153 | 163 | – | – | inactive |
| Epac | 2 | 193 | 98.3 | – | – | inactive |
| Epac | 3 | 168 | 207 | – | – | inactive |
| aru | 1 | 119 | 165 | – | – | inactive |
| aru | 2 | 89.4 | 254 | – | – | inactive |
| mip120 | 1 | 169 | 157 | – | – | inactive |
| CG4892 | 1 | 84 | 107 | – | – | inactive |
| Gk1 | 1 | 134 | 94.9 | – | – | inactive |
| Gk1 | 2 | 100 | 127 | – | – | inactive |
| Bhmt | 1 | 118 | 118 | – | – | inactive |
| PIP4K | 1 | 134 | 172 | – | – | inactive |
| RIOK1 | 1 | 105 | 89.7 | – | – | inactive |
| mAChR-C | 1 | 226 | 162 | – | – | inactive |
| CG10912 | 1 | 168 | 84.7 | – | – | inactive |
| CG15425 | 1 | 92.3 | 103 | – | – | inactive |
| fipi | 1 | 165 | 98.3 | – | – | inactive |
| Vps35 | 1 | 88.3 | 89 | – | – | inactive |
| CG30340 | 1 | 129 | 125 | – | – | inactive |
| CG17104 | 1 | 77 | 95.8 | – | – | inactive |
| Bgb | 1 | 159 | 114 | – | – | inactive |
| chm | 1 | 141 | 174 | – | – | inactive |
| CG3176 + CR18166 + CG32817 | 1 | 115 | 85.9 | – | – | inactive |
| Ppr-Y | 1 | 123 | 10480 | – | – | inactive |
| Cad86C | 1 | 157 | 122 | – | – | inactive |
| Cad86C | 2 | 154 | 92.8 | – | – | inactive |
| CG32262 | 1 | 80 | 129 | – | – | inactive |
| CG7420 | 1 | 129 | 228 | – | – | inactive |
| Wdr81 | 1 | 88 | 94.8 | – | – | inactive |
| CG11893 | 1 | 295 | 105 | – | – | inactive |
| Kdm3 | 1 | 91.3 | 84.3 | – | – | inactive |
| Dcp-1 | 1 | 171 | 105 | – | – | inactive |
